Screen size: about 580,000 compounds; about 6,100 (1.1%) were called active. Inconclusive results, whose numbers are uncertain, are shown with a selection of clear calls. Calls come from the whole dose curve; as a rule, active = well fitted inhibition curve with a large enough effect; inconclusive = small, poorly fitted or top-dose-only effect, or another doubt; inactive = no such curve, though single readings can be large or run the other way. A potency beside an inconclusive call is a rough fit, not a confirmed value.
biological target: Polyunsaturated fatty acid lipoxygenase ALOX12 (Homo sapiens) (UniProt P18054); test: Primary qHTS assay for inhibitors of human arachidonate 12S-lipoxygenase (ALOX12): Round 2; details: purified 12hLO, xylenol orange hydroperoxide absorbance; activity change, negative = inhibition: at 108 µM (top of the series)
In short: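 Purified human 12hLO (150 nM final) in 25 mM Hepes, 0.01% Triton X-100, pH 7.0 was preincubated 15 min at room temperature with compound. Then 40 uM arachidonic acid was added, 30 min. Hydroperoxide was read by Fe-XO absorbance ratio 573/405 nm.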
% is set by controls: 0 for no effect and ±100 for the full control effect; potency is the fitted concentration of half-maximal effect.

Sequences of proteins named here, by UniProt entry; tags and fusion partners are left off. A change or cut given only in a name is not applied to a line headed by its entry.
UniProt P18054: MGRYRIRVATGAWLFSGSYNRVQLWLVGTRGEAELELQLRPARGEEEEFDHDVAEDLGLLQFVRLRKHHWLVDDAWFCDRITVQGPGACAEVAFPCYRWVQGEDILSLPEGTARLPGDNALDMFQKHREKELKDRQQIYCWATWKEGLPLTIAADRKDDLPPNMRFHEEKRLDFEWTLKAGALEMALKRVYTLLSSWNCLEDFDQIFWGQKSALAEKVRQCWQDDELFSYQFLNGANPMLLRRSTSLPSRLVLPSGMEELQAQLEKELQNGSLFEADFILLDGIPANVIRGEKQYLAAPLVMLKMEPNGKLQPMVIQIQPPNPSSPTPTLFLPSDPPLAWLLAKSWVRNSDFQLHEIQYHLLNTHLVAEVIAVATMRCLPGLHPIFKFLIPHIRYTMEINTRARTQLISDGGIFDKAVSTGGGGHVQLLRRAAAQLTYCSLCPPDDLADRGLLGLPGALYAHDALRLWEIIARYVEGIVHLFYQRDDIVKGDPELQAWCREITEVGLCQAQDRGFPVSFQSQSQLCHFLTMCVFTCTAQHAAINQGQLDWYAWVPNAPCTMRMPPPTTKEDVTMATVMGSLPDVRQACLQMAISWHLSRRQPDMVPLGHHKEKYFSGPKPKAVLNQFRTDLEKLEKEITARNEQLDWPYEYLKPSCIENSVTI

Row | SMILES | Potency | activity change, negative = inhibition
1 | Cc1cccc(N2C(=O)/C(=C/N3CCN(C(=O)c4ccco4)CC3)C(=O)NC2=S)c1 | inconclusive: 39.8 µM [inhibitor, partial curve, poor fit] | 
2 | CCN1C[C@]2(COC(=O)c3ccccc3N3C(=O)CC(C)C3=O)CC[C@H](OC)[C@@]34C5C[C@@H]6[C@@H](OC)C[C@@](O)(C5[C@H]6OC)[C@](O)([C@@H](OC)C23)[C@@H]14 (stereo not given in full) | inconclusive: 10 µM [inhibitor, full curve, poor fit] | 
3 | COc1ccc(CC2C(=O)N(C)C(=O)N(C)C2=O)c(OC)c1 | inconclusive: 44.7 µM [inhibitor, partial curve, poor fit] | 
4 | CC(C)[C@H]1C(=O)N[C@H](CO)Cc2c[nH]c3cccc(c23)N1C | active: 39.8 µM | 
5 | CC(C)=CCc1c(O)cc2c(c1O)C(=O)CC(c1ccc(O)cc1)O2 (stereo not given) | inconclusive: 158 µM [inhibitor, single point] | 
6 | c1ccc2c(N3CCNCC3)cccc2c1 | inconclusive: 35.5 µM [inhibitor, partial curve, poor fit] | 
7 | COC(=O)C1C(O)C(C)C(O)C(C)/C=C\C=C(/C)C(=O)Nc2c(C)c(OC(C)=O)c3c(c2O)C(=O)C(C)=C2OCOC(=C23)/C(C)=C/C(C)(O)C(O)C(C)C1O (stereo not given) | inconclusive: 50.1 µM [inhibitor, partial curve, poor fit] | 
8 | CC(C)NC(=O)[C@H]1CN2CC[C@H]1C[C@@H]2Cn1cc(C2(O)CCCC2)nn1 | inactive | 
9 | CCN1C(=O)C(=Cc2c(C)n(CC(=O)NCC3CCCO3)c3ccccc23)C(=O)N(CC)C1=S (stereo not given) | inconclusive: 50.1 µM [inhibitor, partial curve, poor fit] | 
10 | CN1CCCC(C(=O)N2C3CCC2CN(Cc2cccnc2)C3)C1 (stereo not given) |  | inactive: 2.04% [at 6.33 µM]
11 | CCN1CCN(c2ccc([N+](=O)[O-])cc2C=C2C(=O)NC(=O)NC2=O)CC1 | inconclusive: 89.1 µM [inhibitor, partial curve, poor fit] | 
12 | CC1=C(C(=O)OC(C)(C)C)C2(C(=O)Nc3ccccc32)C(C(=O)OC(C)C)=C(N)O1 (stereo not given) | inconclusive: 11.2 µM [inhibitor, full curve, poor fit] | 
13 | COc1cc(C(=O)OC2C[C@H]3CC[C@@H](C2)N3)ccc1O (stereo not given in full) | inconclusive: 50.1 µM [inhibitor, partial curve, poor fit] | 
14 | CC(C)c1ccc(N2C(=O)NC(=O)/C(=C/c3cnc(-c4ccccc4)nc3)C2=O)cc1 | active: 15.8 µM | 
15 | NC(N)=NC(N)=NCc1cccnc1 | inconclusive: 39.8 µM [inhibitor, partial curve, poor fit] | 

A few values from the entries so far:
Entry for CC(C)NC(=O)[C@H]1CN2CC[C@H]1C[C@@H]2Cn1cc(C2(O)CCCC2)nn1 under Potency: inactive
Entry for Cc1cccc(N2C(=O)/C(=C/N3CCN(C(=O)c4ccco4)CC3)C(=O)NC2=S)c1 under Potency: inconclusive: 39.8 µM [inhibitor, partial curve, poor fit]

— PubChem BioAssay AID1671190 (National Center for Advancing Translational Sciences (NCATS), 2021)
